This is an account of results in paper PMC11745341.

Test in all cases: two-hybrid; yeast two-hybrid (Y2H), standard protocols; details in SI Appendix
The target of assay [1] is T1, RNF212 (mouse) (UniProt F6TQD1).
T1 sequence: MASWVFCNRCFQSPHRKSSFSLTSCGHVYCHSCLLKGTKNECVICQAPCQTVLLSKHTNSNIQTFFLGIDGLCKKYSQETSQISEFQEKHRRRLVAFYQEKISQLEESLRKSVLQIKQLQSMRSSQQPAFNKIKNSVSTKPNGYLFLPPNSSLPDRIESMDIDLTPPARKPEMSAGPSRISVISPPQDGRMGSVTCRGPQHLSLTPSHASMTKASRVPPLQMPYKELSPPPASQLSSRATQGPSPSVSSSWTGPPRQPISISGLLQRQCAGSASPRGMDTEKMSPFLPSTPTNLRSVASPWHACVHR

Assay [2] has as its target T2, RNF212B (mouse) (UniProt D3Z423).
T2 sequence: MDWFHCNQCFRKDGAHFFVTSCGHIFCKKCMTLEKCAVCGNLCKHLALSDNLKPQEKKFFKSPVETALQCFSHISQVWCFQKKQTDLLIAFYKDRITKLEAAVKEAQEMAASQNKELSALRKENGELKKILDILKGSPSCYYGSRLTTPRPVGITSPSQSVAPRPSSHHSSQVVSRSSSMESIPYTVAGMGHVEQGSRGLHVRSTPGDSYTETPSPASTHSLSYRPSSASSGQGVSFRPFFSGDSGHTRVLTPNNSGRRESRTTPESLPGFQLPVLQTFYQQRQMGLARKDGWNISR

Assay [3] concerns the target T3, RNF212 (mouse), F6TQD1.
T3 chain: T1 sequence
The following applies: remark: other sources report otherwise.

No constants are given. Whether binding was seen depends on the method and setting. Some binding calls cover weakened binding; strength is not graded here.

B1: RNF212B (protein, UniProt D3Z423 1-297)
chain: T2 sequence
For the molecule B1, the binding entry in assay [1] and in assay [2] was “binds” each time.

B2: HEI10 (protein, UniProt D3Z3K2 1-276)
chain: MSLCEDMLLCNYRKCRIKLSGYAWVTACSHIFCDQHGSGEFSRSPAICPACNSTLSGKLDIVRTELSPSEEYKAMVLAGLRPEVVLDISSRALAFWTYQVHQERLYQEYNFSKAENHLKQMEKMYMQQIQSKNIELTSMKGEVISMKKVLEEYKKKFSDISEKLMERNRQYQKLQGLYDSLRLRNITIASQEGSLEPGMIPQSGVFGFPPGNNSKFSLDHIPVGNQGGGDEDVQFRPFFVCSPTAPEPINNFFSFASPSHEAEQQVCSRAFKAKRI
Turning to B2, the binding entry in assay [2] is recorded as “binds”.

B3: HEI10, D3Z3K2 1-276 (protein)
chain: B2 chain
With B3, the binding entry in assay [3] is reported as “no binding”.

B4: RNF212 (protein, UniProt F6TQD1 1-307)
chain: T1 sequence
For B4, the binding result in assay [1] is listed as “binds weakly”.
